This is one part of the list.
Tests used:
Assay in all cases: log2 fold change, soluble protein after heating vs DMSO (PISA); higher = thermal stabilisation; K562 lysate, 10 uM; active = over 0.2 and 3.5 SD of the protein, either way, in both replicates (recomputed)
dasatinib = compound: Cc1nc(Nc2ncc(C(=O)Nc3c(C)cccc3Cl)s2)cc(N2CCN(CCO)CC2)n1 [dasatinib]
Outline: (§1)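 K562 pellets were dounce-homogenised in PBS pH 7.4 containing 1 mM MgCl2, and the crude extract, at 1 mg/mL protein, was exposed to 10 μM compound for 30 min. Aliquots were heated for 3 min across 48°C-58°C, pooled, brought to 0.5% NP-40 at 4°C and spun at 21,000xg for 90 min, with the supernatant taken as soluble protein. TMTpro 16plex LC-MS/MS with equalised channel sums quantified that protein. Values are log-two fold changes in thermal stability relative to solvent controls, taken from duplicates.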

The chains behind the UniProt entries cited, without tags or fusion partners. Where a name states a change or a piece, a line headed by the entry shows the natural chain unless it says otherwise.
UniProt Q9NQZ6: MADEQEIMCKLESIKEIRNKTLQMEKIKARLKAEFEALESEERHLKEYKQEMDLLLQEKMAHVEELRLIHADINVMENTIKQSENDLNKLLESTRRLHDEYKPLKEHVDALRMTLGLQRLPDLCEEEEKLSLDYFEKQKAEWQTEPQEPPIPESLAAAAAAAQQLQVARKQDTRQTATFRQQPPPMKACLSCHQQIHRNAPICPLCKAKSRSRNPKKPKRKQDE
UniProt P10074: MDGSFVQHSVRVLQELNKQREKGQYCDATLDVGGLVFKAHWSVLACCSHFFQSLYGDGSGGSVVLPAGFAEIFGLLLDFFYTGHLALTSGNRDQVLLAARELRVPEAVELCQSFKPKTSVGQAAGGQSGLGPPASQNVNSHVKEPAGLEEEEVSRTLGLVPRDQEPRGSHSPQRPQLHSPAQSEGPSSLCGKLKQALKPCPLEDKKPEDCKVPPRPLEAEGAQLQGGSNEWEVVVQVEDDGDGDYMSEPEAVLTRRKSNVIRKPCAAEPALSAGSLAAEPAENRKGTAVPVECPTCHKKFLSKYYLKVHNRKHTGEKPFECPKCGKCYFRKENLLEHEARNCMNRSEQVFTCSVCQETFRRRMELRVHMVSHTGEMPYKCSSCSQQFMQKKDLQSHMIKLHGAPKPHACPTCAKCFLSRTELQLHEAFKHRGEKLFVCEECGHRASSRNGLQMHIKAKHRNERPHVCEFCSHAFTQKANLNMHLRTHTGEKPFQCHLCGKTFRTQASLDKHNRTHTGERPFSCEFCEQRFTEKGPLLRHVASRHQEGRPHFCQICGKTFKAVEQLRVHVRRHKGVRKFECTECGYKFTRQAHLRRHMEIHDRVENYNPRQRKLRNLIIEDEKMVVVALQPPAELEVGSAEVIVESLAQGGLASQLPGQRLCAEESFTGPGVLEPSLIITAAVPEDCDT
UniProt Q8TBK6: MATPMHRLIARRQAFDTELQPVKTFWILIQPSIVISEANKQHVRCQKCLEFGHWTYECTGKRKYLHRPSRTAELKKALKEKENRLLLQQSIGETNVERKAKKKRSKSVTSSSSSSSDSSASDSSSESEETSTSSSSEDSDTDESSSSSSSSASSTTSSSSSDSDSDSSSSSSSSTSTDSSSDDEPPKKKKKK
UniProt Q9H869: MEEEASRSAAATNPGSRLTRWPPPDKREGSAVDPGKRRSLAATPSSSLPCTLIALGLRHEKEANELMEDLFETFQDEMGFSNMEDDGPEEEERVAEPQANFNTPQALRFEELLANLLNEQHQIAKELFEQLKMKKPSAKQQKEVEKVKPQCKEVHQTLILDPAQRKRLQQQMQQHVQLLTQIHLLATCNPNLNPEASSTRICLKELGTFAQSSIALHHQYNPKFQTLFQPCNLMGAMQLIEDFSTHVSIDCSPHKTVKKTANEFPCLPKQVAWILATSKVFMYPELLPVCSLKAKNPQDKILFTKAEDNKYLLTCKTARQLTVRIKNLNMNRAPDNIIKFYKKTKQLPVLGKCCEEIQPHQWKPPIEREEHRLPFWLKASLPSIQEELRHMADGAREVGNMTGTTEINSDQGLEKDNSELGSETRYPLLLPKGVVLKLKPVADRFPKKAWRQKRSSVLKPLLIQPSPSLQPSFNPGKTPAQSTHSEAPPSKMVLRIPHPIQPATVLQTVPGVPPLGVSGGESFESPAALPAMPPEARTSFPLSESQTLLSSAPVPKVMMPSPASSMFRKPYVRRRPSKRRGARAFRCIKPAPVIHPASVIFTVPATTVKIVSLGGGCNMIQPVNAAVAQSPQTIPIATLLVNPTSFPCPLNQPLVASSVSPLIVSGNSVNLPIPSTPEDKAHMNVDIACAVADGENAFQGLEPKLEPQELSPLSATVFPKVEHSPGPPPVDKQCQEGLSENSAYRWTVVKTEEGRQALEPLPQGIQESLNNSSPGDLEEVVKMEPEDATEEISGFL
UniProt Q8WW38: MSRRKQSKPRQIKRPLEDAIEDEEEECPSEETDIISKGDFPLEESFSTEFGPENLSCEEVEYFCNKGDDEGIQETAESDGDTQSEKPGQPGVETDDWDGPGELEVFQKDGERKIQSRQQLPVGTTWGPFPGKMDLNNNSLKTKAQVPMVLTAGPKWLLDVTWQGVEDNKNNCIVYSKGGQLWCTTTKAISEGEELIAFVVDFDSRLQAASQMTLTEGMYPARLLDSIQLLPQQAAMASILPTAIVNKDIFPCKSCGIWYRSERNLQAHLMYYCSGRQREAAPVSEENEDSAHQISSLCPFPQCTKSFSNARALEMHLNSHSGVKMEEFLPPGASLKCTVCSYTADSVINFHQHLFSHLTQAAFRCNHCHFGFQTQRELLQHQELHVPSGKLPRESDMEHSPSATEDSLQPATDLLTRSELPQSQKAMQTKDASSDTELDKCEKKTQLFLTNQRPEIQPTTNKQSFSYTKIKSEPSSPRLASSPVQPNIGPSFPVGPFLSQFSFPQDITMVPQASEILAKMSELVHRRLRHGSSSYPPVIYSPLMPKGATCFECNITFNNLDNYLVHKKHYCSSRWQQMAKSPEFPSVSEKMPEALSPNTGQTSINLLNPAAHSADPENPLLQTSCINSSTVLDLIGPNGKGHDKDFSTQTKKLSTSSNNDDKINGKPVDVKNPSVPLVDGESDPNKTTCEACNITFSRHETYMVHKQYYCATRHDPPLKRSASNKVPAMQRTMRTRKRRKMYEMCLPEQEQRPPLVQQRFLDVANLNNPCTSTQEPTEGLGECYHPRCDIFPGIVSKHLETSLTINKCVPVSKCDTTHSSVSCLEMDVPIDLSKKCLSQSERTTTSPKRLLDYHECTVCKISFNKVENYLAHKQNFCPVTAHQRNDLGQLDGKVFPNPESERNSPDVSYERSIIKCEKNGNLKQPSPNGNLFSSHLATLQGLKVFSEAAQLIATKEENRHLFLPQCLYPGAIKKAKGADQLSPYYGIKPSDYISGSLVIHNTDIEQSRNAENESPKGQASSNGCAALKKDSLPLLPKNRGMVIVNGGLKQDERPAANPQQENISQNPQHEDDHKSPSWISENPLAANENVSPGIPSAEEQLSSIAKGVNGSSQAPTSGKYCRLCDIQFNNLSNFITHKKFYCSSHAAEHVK
UniProt Q96K80: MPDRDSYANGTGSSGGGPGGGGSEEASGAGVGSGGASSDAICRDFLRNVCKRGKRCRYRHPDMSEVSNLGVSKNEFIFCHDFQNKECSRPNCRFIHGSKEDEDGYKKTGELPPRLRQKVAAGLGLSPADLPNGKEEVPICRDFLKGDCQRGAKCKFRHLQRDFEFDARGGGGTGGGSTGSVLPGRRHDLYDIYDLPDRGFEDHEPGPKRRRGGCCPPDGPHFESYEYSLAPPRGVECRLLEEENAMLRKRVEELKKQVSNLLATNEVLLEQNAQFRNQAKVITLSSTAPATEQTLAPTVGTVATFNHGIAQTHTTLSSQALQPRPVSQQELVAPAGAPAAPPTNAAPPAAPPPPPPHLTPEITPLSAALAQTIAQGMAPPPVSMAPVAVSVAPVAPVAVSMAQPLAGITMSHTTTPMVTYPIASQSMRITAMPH
UniProt Q8IUH4: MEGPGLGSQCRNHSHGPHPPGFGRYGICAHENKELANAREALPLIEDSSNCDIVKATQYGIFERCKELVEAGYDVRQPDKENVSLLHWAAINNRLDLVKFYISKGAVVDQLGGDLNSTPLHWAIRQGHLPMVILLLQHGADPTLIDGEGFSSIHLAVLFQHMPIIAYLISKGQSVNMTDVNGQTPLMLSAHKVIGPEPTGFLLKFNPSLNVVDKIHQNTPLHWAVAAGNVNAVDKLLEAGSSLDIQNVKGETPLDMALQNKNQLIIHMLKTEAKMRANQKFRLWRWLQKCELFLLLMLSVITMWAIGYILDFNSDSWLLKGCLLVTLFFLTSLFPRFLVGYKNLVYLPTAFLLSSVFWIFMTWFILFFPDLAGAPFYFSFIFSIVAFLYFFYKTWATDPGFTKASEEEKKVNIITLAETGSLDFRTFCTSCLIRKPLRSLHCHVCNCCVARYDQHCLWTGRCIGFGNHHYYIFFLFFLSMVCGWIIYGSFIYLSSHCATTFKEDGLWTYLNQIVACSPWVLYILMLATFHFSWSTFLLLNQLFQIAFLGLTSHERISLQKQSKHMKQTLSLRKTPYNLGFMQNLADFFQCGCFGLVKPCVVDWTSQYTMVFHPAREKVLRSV
UniProt Q9UIJ5: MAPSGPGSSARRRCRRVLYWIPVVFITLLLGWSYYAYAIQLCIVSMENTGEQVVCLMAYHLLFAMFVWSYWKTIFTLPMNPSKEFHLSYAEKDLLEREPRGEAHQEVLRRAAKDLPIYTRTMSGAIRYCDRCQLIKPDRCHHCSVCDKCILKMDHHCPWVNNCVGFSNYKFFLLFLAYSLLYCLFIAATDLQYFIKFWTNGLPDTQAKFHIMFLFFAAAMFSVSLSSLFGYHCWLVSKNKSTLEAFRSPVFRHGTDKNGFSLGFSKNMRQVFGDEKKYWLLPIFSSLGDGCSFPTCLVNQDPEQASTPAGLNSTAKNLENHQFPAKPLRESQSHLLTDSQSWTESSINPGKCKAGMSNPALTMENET
UniProt P17010: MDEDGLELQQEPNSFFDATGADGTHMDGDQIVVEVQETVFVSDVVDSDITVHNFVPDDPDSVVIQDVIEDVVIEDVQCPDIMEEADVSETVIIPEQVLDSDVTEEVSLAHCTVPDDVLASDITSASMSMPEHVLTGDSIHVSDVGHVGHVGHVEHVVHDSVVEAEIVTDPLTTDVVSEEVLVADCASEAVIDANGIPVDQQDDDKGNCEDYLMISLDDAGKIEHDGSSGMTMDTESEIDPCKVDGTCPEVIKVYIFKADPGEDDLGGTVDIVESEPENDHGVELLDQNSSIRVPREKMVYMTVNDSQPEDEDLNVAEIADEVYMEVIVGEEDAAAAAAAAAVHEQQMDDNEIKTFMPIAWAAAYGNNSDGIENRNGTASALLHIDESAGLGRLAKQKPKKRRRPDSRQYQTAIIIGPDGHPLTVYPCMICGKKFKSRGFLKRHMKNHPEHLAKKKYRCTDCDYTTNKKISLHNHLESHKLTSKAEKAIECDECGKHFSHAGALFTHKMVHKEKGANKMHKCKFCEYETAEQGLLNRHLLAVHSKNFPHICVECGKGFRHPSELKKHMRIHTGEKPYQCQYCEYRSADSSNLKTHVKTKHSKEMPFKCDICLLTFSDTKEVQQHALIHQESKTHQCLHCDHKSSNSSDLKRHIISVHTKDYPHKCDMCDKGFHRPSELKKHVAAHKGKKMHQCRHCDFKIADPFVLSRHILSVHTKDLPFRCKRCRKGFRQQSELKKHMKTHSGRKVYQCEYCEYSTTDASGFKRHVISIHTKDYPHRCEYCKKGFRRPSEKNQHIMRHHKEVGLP
UniProt Q8N567: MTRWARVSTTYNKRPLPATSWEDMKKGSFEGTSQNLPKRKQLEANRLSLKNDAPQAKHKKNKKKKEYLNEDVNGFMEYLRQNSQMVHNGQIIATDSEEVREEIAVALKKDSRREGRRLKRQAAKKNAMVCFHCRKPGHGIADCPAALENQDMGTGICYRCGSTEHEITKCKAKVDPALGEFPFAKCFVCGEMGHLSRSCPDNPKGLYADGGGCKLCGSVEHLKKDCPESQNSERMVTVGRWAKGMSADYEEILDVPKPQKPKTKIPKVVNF
UniProt Q9Y397: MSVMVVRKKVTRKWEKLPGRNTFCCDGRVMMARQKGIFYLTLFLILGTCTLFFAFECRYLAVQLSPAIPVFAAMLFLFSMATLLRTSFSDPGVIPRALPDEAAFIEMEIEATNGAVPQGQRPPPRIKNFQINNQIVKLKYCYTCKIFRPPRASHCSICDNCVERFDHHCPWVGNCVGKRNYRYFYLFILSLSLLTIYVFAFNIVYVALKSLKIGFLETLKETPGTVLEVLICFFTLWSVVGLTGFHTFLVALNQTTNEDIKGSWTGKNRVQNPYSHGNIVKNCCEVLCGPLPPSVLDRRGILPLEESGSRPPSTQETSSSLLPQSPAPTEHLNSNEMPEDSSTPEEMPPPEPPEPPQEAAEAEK
UniProt Q5W0Z9: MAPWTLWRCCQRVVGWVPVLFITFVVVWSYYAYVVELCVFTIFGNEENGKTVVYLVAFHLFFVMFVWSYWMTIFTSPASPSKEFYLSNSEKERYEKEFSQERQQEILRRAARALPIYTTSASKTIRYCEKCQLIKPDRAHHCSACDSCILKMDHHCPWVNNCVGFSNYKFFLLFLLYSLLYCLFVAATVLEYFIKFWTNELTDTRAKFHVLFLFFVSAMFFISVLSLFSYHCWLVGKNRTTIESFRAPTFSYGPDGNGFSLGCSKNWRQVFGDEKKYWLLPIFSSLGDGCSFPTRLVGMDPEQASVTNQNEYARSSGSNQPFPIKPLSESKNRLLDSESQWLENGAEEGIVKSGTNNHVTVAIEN
UniProt Q9H8U3: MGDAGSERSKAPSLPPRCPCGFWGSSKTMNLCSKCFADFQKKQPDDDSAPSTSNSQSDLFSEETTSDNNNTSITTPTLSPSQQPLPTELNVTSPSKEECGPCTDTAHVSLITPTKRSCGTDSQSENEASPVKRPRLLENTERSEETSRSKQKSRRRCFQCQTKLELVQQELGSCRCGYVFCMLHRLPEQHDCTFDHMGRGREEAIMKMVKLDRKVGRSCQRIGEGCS

[1] = compound: Cn1cc(-c2ccc3c(c2)CCN3C(=O)Cc2cccc(C(F)(F)F)c2)c2c(N)ncnc21
Outline: as §1

[2] = compound: NC(=O)c1cnc(N[C@@H]2CCCC[C@@H]2N)nc1Nc1cccc(-n2nccn2)c1
Outline: as §1

[3] = compound: NC1(c2ccc(-c3nc4ccn5c(=O)[nH]nc5c4cc3-c3ccccc3)cc2)CCC1
Outline: as §1

vorinostat = compound: O=C(CCCCCCC(=O)Nc1ccccc1)NO [vorinostat]
Outline: as §1

silmitasertib = compound: O=C(O)c1ccc2c(c1)nc(Nc1cccc(Cl)c1)c1ccncc12 [silmitasertib]
Outline: as §1

quisinostat = compound: Cn1cc(CNCC2CCN(c3ncc(C(=O)NO)cn3)CC2)c2ccccc21 [quisinostat]
Outline: as §1

[4] = compound: NC(=O)Nc1cc(-c2cccc(F)c2)sc1C(=O)N[C@H]1CCCNC1
Outline: as §1

[5] = compound: O=C1NC(=O)C(c2cnc3ccccn23)=C1c1cn2c3c(cc(F)cc13)CN(C(=O)N1CCCCC1)CC2
Outline: as §1

[6] = compound: NCC(=O)Nc1ccc(-n2nc(C(F)(F)F)cc2-c2ccc3c(ccc4ccccc43)c2)cc1
Outline: as §1

entospletinib = compound: c1cn2cc(-c3ccc4cn[nH]c4c3)nc(Nc3ccc(N4CCOCC4)cc3)c2n1 [entospletinib]
Outline: as §1

Measured: log2 fold change

ZBED6 (UniProt P86452)
inactive: dasatinib -0.049 | [1] 0.022 | [2] -0.073 | [3] -0.127 | vorinostat 0.066 | silmitasertib 0.106

ZC4H2 (UniProt Q9NQZ6)
inactive: quisinostat -0.177 | [4] -0.163 | [5] 0.04

ZBTB37 (UniProt Q5TC79)
inactive: quisinostat 0.087 | [4] -0.25 | [5] -0.147

ZBTB48 (UniProt P10074)
inactive: dasatinib -0.052 | [1] 0.004 | [6] -0.032

ZBED5 (UniProt Q49AG3)
inactive: dasatinib -0.175 | [1] 0.459 | [3] -0.231 | vorinostat -0.072 | silmitasertib -0.009

Retrieved one by one from the entries so far, two records:
ZBTB37 (UniProt Q5TC79)
inactive: quisinostat 0.087 | [4] -0.25 | [5] -0.147

ZBED6 (UniProt P86452)
inactive: dasatinib -0.049 | [1] 0.022 | [2] -0.073 | [3] -0.127 | vorinostat 0.066 | silmitasertib 0.106

Next part:

ZBTB34 (UniProt Q8NCN2)
inactive: dasatinib -0.074 | [1] -0.074 | [2] -0.05

ZCCHC10 (UniProt Q8TBK6)
inactive: dasatinib 0.131 | [1] 0.106 | quisinostat 0.101 | [4] -0.414 | [5] 0.197 | entospletinib 0.07

ZC3H3 (UniProt Q8IXZ2)
inactive: [2] -0.042

YWHAZ (UniProt E7ESK7)
inactive: dasatinib -0.085 | [1] -0.059 | quisinostat 0.082 | [4] 0.093 | [2] -0.063 | [3] 0.2 | [6] -0.005 | vorinostat 0.155 | silmitasertib -0.196 | [5] 0.188 | entospletinib -0.134

ZFAND1 (UniProt Q8TCF1)
inactive: dasatinib 0.005 | [1] 0.066 | quisinostat 0.121 | [4] -0.036 | [5] -0.078 | entospletinib -0.035

YY1AP1 isoform 9 (UniProt Q9H869)
inactive: dasatinib 0.129 | [1] 0.052 | quisinostat 0.017 | [4] 0.154 | [3] -0.103 | vorinostat -0.286 | silmitasertib -0.193 | [5] -0.043 | entospletinib 0.008

ZBTB1 (UniProt Q9Y2K1)
inactive: [2] 0.113 | [3] -0.082 | vorinostat -0.099 | silmitasertib 0.024 | entospletinib 0

ZFPM2 (UniProt Q8WW38)
inactive: dasatinib 0.045 | [1] -0.09 | quisinostat 0.072 | [4] 0.067 | [3] 0.024 | [6] 0.035 | vorinostat -0.045 | silmitasertib 0.023 | [5] 0.28 | entospletinib 0.05

ZC3H10 (UniProt Q96K80)
inactive: dasatinib 0.046 | [1] -0.049 | quisinostat 0.131 | [4] -0.206 | [5] -0.096

ZDHHC13 (UniProt Q8IUH4)
inactive: dasatinib -0.15 | [1] 0.096 | [3] 0.056 | [6] -0.052 | vorinostat 0.125 | silmitasertib 0.099

ZDHHC2 (UniProt Q9UIJ5)
inactive: quisinostat 0.105 | [4] 0.309 | [2] 0.002 | [3] 0.032 | vorinostat 0.327 | silmitasertib 0.215 | [5] -0.05 | entospletinib -0.034

YWHAZ (UniProt E7EX29)
inactive: [2] -0.191 | entospletinib 0.096

ZBTB17 isoform 2 (UniProt Q13105)
inactive: dasatinib 0.007 | [1] -0.017 | quisinostat 0.022 | [4] 0.187 | [2] -0.001 | [3] 0.017 | vorinostat 0.086 | silmitasertib -0.002 | [5] 0.067

XRCC1 (UniProt F5H8D7)
inactive: dasatinib -0.02 | [1] 0.062 | [3] 0.044 | [6] 0.091 | vorinostat 0.115 | silmitasertib 0.123 | entospletinib -0.064

ZBTB3 (UniProt Q9H5J0)
inactive: dasatinib -0.097 | [1] 0.02 | quisinostat -0.065 | [4] 0 | [2] 0.058 | [3] 0.024 | [6] -0.073 | vorinostat 0.043 | silmitasertib -0.024 | [5] 0.044 | entospletinib -0.033

ZC3H14 isoform 11 (UniProt Q6PJT7)
inactive: quisinostat -0.029 | [4] 0.166 | [5] 0.074

ZFX isoform 3 (UniProt P17010)
inactive: dasatinib -0.07 | [1] -0.163 | quisinostat 0.225 | [4] -0.051 | [2] 0.019 | [5] 0.017

ZCCHC9 (UniProt Q8N567)
inactive: dasatinib 0.075 | [1] -0.052 | quisinostat -0.026 | [4] 0.014 | [2] 0.002 | [3] -0.049 | [6] -0.015 | vorinostat 0.123 | silmitasertib -0.118 | [5] 0.011 | entospletinib -0.025

ZFP92 (UniProt A6NM28)
inactive: [6] -0.064 | entospletinib 0.019

ZBTB44 (UniProt Q8NCP5)
inactive: quisinostat -0.035 | [4] 0.03 | [5] -0.098

YBEY (UniProt P58557)
inactive: dasatinib 0.067 | [1] -0.083 | [3] 0.044 | [6] 0.035 | vorinostat -0.136 | silmitasertib 0.063 | entospletinib 0.029

ZBTB5 (UniProt O15062)
inactive: dasatinib -0.006 | [1] 0.01 | quisinostat -0.062 | [4] 0.022 | [3] -0.024 | [6] -0.139 | vorinostat -0.047 | silmitasertib -0.034 | [5] -0.05 | entospletinib -0.11

ZBTB7B isoform 2 (UniProt O15156)
inactive: dasatinib 0.137 | [1] -0.179 | quisinostat -0.088 | [4] -0.018 | [5] 0.057

ZDHHC9 (UniProt Q9Y397)
inactive: quisinostat -0.118 | [4] -0.165 | [3] 0.103 | vorinostat 0.054 | silmitasertib 0.07 | [5] -0.295

YBX1 (UniProt C9J5V9)
inactive: quisinostat 0.045 | [4] -0.045 | [5] 0.061

ZFP64 isoform 5 (UniProt Q9NTW7)
inactive: quisinostat 0.007 | [4] 0.014 | [2] -0.094 | [5] 0.034 | entospletinib 0.195

ZFYVE19 isoform 3 (UniProt Q96K21)
inactive: [2] -0.002

ZDHHC12 isoform 3 (UniProt Q96GR4)
inactive: quisinostat 0.037 | [4] -0.064 | [5] 0.032

YIPF2 (UniProt Q9BWQ6)
inactive: quisinostat -0.013 | [4] -0.007 | [3] 0.085 | vorinostat 0.081 | silmitasertib 0.089 | [5] 0.048

ZDHHC20 (UniProt Q5W0Z9)
inactive: dasatinib 0.055 | [1] -0.022 | quisinostat -0.088 | [4] -0.085 | [2] 0.011 | [6] 0.039 | [5] 0.032 | entospletinib 0.022

ZBTB43 (UniProt O43298)
inactive: dasatinib 0.038 | [1] 0.026 | quisinostat 0.077 | [4] -0.005 | [2] 0.08 | [3] 0.03 | [6] 0.104 | vorinostat 0.097 | silmitasertib 0.004 | [5] 0.036 | entospletinib -0.006

XPOT (UniProt F5GYW6)
inactive: [2] -0.192

ZFAND3 (UniProt Q9H8U3)
inactive: dasatinib 0.022 | [1] 0.039 | quisinostat 0.115 | [4] -0.089 | [2] -0.132 | [6] -0.106 | [5] -0.306 | entospletinib -0.032

ZBED4 (UniProt O75132)
inactive: [6] 0.06

— the supplement of paper PMC10849652
